According to the supplement of paper PMC10849652:
This is one part of the list.

The chains behind the UniProt entries cited, without tags or fusion partners. Where a name states a change or a piece, a line headed by the entry shows the natural chain unless it says otherwise.
UniProt P78346: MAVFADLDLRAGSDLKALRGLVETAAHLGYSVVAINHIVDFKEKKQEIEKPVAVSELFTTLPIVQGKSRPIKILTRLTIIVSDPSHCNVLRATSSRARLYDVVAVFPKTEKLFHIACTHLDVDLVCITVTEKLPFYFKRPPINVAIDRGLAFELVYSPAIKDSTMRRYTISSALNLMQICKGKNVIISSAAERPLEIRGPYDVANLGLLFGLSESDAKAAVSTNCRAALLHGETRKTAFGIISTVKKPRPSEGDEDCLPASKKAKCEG
UniProt Q96CM3: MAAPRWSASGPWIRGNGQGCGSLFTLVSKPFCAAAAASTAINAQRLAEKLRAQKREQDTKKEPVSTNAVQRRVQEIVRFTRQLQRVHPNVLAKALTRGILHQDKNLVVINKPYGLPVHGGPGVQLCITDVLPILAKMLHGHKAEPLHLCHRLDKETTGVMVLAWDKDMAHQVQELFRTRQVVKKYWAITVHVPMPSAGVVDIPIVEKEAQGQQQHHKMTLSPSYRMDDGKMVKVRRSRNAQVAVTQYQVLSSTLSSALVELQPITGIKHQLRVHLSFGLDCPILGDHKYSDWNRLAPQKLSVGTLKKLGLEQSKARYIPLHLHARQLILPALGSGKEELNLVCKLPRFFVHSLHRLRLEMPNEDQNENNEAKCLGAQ

Key:
Assay in all cases: log2 fold change, soluble protein after heating vs DMSO (PISA); higher = thermal stabilisation; K562 cells, 10 uM, 30 min; active = over 0.2 and 3.5 SD of the protein, either way, in both replicates (recomputed)
[1] = compound: C1=CC=C(C=C1)[C@H](COC2=CC3=C(C=C2)NC(=O)N3)NC(=O)C4=CC=CN(C4=O)CC5=CC(=C(C=C5)F)F
Method in brief: (§1)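 K562 cells (2×10^6 cells/mL) were treated with 10 μM compound for 30 min, and aliquots were heated for 3 min over 48°C-58°C. Pooled aliquots were extracted in PBS with 0.5% NP-40 at 4°C, and the supernatant after 21,000xg for 90 min was measured by TMTpro 16plex LC-MS/MS with channel sums equalised. Reported thermal stability, relative to control samples and from duplicates, is a log2 fold change.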

[2] = compound: CC1=C(SC2=C1C(=N[C@H](C3=NN=C(N32)C)CC(=O)N)C4=CC=C(C=C4)Cl)C
Method in brief: as §1

[3] = compound: CC1=C2C(=CC=C1)N=C(N(C2=O)C3=CC=CC=C3C)CN4C=NC5=C(N=CN=C54)N
Method in brief: as §1

[4] = compound: Cc1sc2c(c1C)C(c1ccc(Cl)cc1)=N[C@@H](CC(=O)OC(C)(C)C)c1nnc(C)n1-2
Method in brief: as §1

[5] = compound: c1ccc([C@@H]2C[C@H]2NC2CCNCC2)cc1
Method in brief: as §1

Measured: log2 fold change

RPL35A (UniProt P18077)
inactive: [1] 0.272 | [2] -0.548 | [3] -0.619 | [4] 0.371 | [5] -0.001

RPS17 (UniProt P08708)
inactive: [1] 0.116 | [2] -0.162 | [3] -0.116 | [4] 0.063 | [5] 0

RPL18A (UniProt Q02543)
inactive: [1] 0.239 | [2] -0.636 | [3] -0.722 | [4] 0.452 | [5] -0.001

RPP30 isoform 2 (UniProt P78346)
inactive: [1] 0.046 | [2] -0.03 | [3] -0.002 | [4] 0.111 | [5] 0.05

RPS10 (UniProt P46783)
inactive: [1] 0.049 | [2] -0.106 | [3] -0.16 | [4] 0.078 | [5] 0

RPL36 (UniProt Q9Y3U8)
inactive: [1] 0.226 | [2] -0.461 | [3] -0.605 | [4] 0.295 | [5] -0.001

2 records drawn at random from the list so far:
RPS10 (UniProt P46783)
inactive: [1] 0.049 | [2] -0.106 | [3] -0.16 | [4] 0.078 | [5] 0

RPS17 (UniProt P08708)
inactive: [1] 0.116 | [2] -0.162 | [3] -0.116 | [4] 0.063 | [5] 0

(next part)

RPL11 (UniProt P62913)
inactive: [1] 0.204 | [2] -0.457 | [3] -0.487 | [4] 0.316 | [5] -0.001

RPS8 (UniProt P62241)
inactive: [1] 0.163 | [2] -0.268 | [3] -0.302 | [4] 0.156 | [5] 0

RPUSD4 (UniProt Q96CM3)
inactive: [2] -0.094 | [4] 0.204 | [5] -0.035
